# Results published in PubChem BioAssay AID493014 (National Center for Advancing Translational Sciences (NCATS), 2011).
# The other results are listed elsewhere or left out. Shown are side measurements of this screen, not its main read-out; they come without a call. Most of these compounds were active or inconclusive in the main read-out, so they are no random draw. Words in brackets tell the shape of the fitted curve; partial curves, single points and poor fits give uncertain potencies.
# Assay: qHTS Assay to Find Inhibitors of Chronic Active B-Cell Receptor Signaling
# Settings: ABC-DLBCL IkBa-CBG/CBR reporter, luminescence ratio (green luciferase fused to IkBa over red control in TMD8 lymphoma cells), 4 h
# How it was run: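 Compounds up to 46 uM were incubated four hours with TMD8 cells whose green CBG68 luciferase is fused to IkappaBalpha; red CBR luminescence normalised the signal, and concentration-effect curves were fitted to fusion, red and ratio data.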
# [1] = measured here: CBR red luminescence, cell number
# [2] = measured here: IkBa-CBG green luminescence
SMILES,AC50 [1],AC50 [2]
CCOC(=O)c1cccc(NC(=O)c2ccco2)c1,"6.51 µM [falling, partial curve, poor fit]",–
Cc1ccc(NS(=O)(=O)c2ccccc2F)cc1S(=O)(=O)N1CCCCCC1,"13 µM [falling, partial curve, poor fit]",–
CCCC(=O)C1=C(c2ccccc2)C(C#N)(C#N)C(C#N)=C1N,"17.8 µM [falling, single point]",–
Cn1cccc1-c1nc2ccc(NC(=O)c3cccs3)cc2[nH]1,"5.17 µM [falling, full curve, poor fit]",–
COc1cc2c(cc1NC(=O)CN(C)Cc1ccc(OC)c(OC)c1)oc1ccccc12,"1.03 µM [falling, full curve]",–
CC(=O)c1ccc(OC(=O)c2nc(-c3ccccc3)oc2C)cc1,"5.62 µM [rising, single point]",–
CN(C)CC(O)COc1ccc(C(C)(C)c2ccc(OCC(O)CN(C)C)cc2)cc1 (configuration not stated),"20 µM [falling, partial curve, poor fit]",–
CCOc1ccc(Nc2oc(-c3ccco3)nc2C#N)cc1,"6.31 µM [rising, single point]",–
O=C(O)c1cc(-c2ccc(Cl)cc2)n(-c2cccc(Cl)c2)n1,"10 µM [falling, partial curve, poor fit]",–
Cc1cccnc1NC(=O)c1c(O)c2ccccc2n(C)c1=O,"18.4 µM [falling, single point]",–
CC1CC(C)(C)OC(C[N+]2(C)CCCCC2)O1 (configuration not stated),"35.5 µM [rising, single point]",–
Cc1cc(NC(=O)c2ccco2)c(=O)n(Cc2cccc(C(F)(F)F)c2)c1,"2.82 µM [falling, partial curve, poor fit]",–
Cc1cccc(NC(=S)Nc2ccccn2)c1C,"0.461 µM [rising, full curve, poor fit]",–
CNC(=S)N/N=C/c1c(C)cccc1Cl,–,"35.5 µM [falling, single point]"
CNc1ccc(/C=C(\C#N)c2ccccn2)cc1[N+](=O)[O-],"12.6 µM [rising, partial curve, poor fit]",–
C=CC[C@@H](CC(=O)N(CCO)Cc1ccccc1)C(=O)NC[C@@H](OC(=O)[C@@H](CC=C)Cc1ccc(F)cc1)c1ccccc1,"23.1 µM [falling, partial curve]",–
CCOC(=O)NNC(=O)C12CC3CC(CC(C3)C1)C2,"25.1 µM [falling, single point]",–
Fc1ccc(Cn2nnnc2CN2CCN(C3CCCC3)CC2)cc1,"6.51 µM [rising, single point]",–
NNC(=O)CNC(=O)C12CC3CC(CC(C3)C1)C2,"0.631 µM [rising, full curve, poor fit]",–
N#Cc1nc(-c2ccc(Cl)cc2)oc1NCc1ccco1,"0.326 µM [rising, full curve, poor fit]",–
Nc1nc2ccccc2n1C(=O)c1ccco1,"5.8 µM [falling, partial curve]","4.11 µM [rising, partial curve, poor fit]"
CCCCCCOC(=O)NCC(O)c1ccccc1 (configuration not stated),"12.6 µM [falling, partial curve, poor fit]",–

SMILES,AC50 [1],AC50 [2]
CCc1c(O)nc(SCC(=O)Nc2nc3ccccc3s2)n(-c2ccccc2)c1=O,"7.08 µM [falling, partial curve]",–
Cc1ccc(S(=O)(=O)Nc2cccc3ncccc23)s1,"2 µM [rising, full curve]","2.82 µM [falling, partial curve]"
COCCN(C(=O)COC(=O)CSc1ccccc1)c1c(N)n(Cc2ccccc2)c(=O)[nH]c1=O,"0.164 µM [falling, full curve, poor fit]",–
Cc1ccc(COC(=O)CCc2nc3ccccc3c(=O)[nH]2)cc1,"4.11 µM [rising, partial curve, poor fit]",–
CCOc1ccccc1NC(=O)CSc1nnc2[nH]c(=O)cc(-c3ccccc3)n12,"2.24 µM [falling, full curve, poor fit]",–
COC(=O)CN1C(=S)N(Cc2ccccc2)C(=O)C1CC(=O)Nc1ccc(Br)cc1 (configuration not stated),"12.6 µM [falling, partial curve]",–
COc1cc(/C(C)=N/Nc2ccc(C(=O)O)cc2)cc(OC)c1OC,"0.326 µM [falling, full curve]",–
CCCCn1c(=O)n(C)c(=O)c2c(C(F)(F)F)cc(-c3ccncc3)nc21,"2.31 µM [falling, full curve, poor fit]",–
NNC(=O)c1cc2cc3ccccc3nc2s1,"2 µM [falling, partial curve, poor fit]",–
CCc1cc2c(=O)c(-c3ccc4c(c3)OCCO4)coc2cc1OC(=O)c1ccco1,"23.1 µM [rising, single point]",–
Cc1ccccc1NC(=O)c1cc(S(=O)(=O)N2CCCCC2)cs1,"6.51 µM [falling, single point]",–
CC(C)(C)c1ccccc1NC(=S)NC1CCCCC1,"0.501 µM [rising, full curve]",–
CC(=O)Nc1cccc(NC(=O)c2cc([N+](=O)[O-])ccc2N2CCCCC2)c1,"2.59 µM [rising, full curve, poor fit]",–
COc1ccc(-c2nc(C#N)c(NC(C)C)o2)cc1,"35.5 µM [rising, single point]",–
COc1cc(/C=C/C2=CC(C)(C)NC(=S)N2)cc(OC)c1OC,"2 µM [falling, full curve]",–
CCN(CC)c1nc(C(N)=O)cc(-c2ccccc2)n1,"3.55 µM [falling, partial curve, poor fit]",–
CCC(=O)Nc1nc(C)c(-c2csc(Nc3cccc(C(=O)O)c3)n2)s1,"11.2 µM [falling, partial curve]",–
CCOC(=O)N1CCN(Cc2nc(N)nc(Nc3ccc(C)cc3C)n2)CC1,"35.5 µM [rising, single point]",–
COc1ccc(CN(C#N)c2nc(C)cc(C)n2)cc1,–,"17.8 µM [falling, partial curve, poor fit]"
O=C(Nc1ccc(Cl)cc1)Nc1nc(-c2ccccc2O)cs1,"4.47 µM [falling, partial curve, poor fit]",–
O=c1[nH]c2ccc(NCc3ccc(OCc4ccccc4Cl)cc3)cc2[nH]1,"35.5 µM [falling, single point]",–
Cc1cccc2c1-c1sc(C(=O)Nc3cccc([N+](=O)[O-])c3C)cc1CO2,"16.4 µM [falling, partial curve]",–

SMILES,AC50 [1],AC50 [2]
COc1ccc(/C=N/NC(=O)c2ccc(N)cc2)cc1Cn1cc([N+](=O)[O-])cn1,"2 µM [falling, full curve]",–
COc1ccc(-c2ccc3ccccc3n2)cc1OC,"0.631 µM [rising, full curve, poor fit]",–
CCC1CCCCN1C(=O)CSc1nnc(-c2cccc(Cl)c2)o1 (configuration not stated),–,"20.6 µM [rising, partial curve, poor fit]"
COc1ccc(-c2cnn3c4c(c(C)nc23)CCN4C(C)C)cc1OC,"1.84 µM [rising, full curve, poor fit]",–
COc1ccc(-n2nc(C(=O)NCC(=O)NC(C)C)c3ccccc3c2=O)c(OC)c1,"10 µM [rising, partial curve]",–
O=C(NCc1ccc(Cl)cc1)c1ccc(-c2ccccc2C(F)(F)F)o1,"23.1 µM [falling, partial curve]",–
COc1ccc(/C=N/N=C(\N)c2nonc2N)cc1,"14.1 µM [falling, partial curve]",–
CCOc1ccc(C(C)=O)cc1COC(=O)c1cnc(Cl)c(Cl)c1,"0.794 µM [rising, full curve, poor fit]",–
C=CCn1c(SCC(=O)c2ccc(O)c(O)c2)nnc1-c1ccccc1OC,"10 µM [falling, partial curve]",–
Cc1ccc(NC(=O)c2ccccc2NS(=O)(=O)c2ccc(Cl)s2)cc1S(=O)(=O)N1CCOCC1,"29.1 µM [falling, single point]",–
Cc1nn(C)c(C)c1NS(=O)(=O)c1ccc(Cl)cc1,"32.6 µM [rising, partial curve, poor fit]",–
Cc1nn2c3ccccc3n(C)c2nc1=O,"29.1 µM [rising, partial curve, poor fit]",–
O=C1NCCC/C1=N\Nc1ccc(Br)cc1,"2.82 µM [rising, partial curve, poor fit]",–
O=C(CC(C(=O)O)P(=O)(c1ccccc1)c1ccccc1)c1ccc(Br)cc1 (configuration not stated),"3.98 µM [falling, partial curve, poor fit]",–
CNS(=O)(=O)c1cc(NC(C)=O)c(C)cc1C,"23.1 µM [rising, partial curve, poor fit]",–
COC(=O)c1ccc(C2/C(=C(/O)c3ccc(Cl)cc3)C(=O)C(=O)N2C2CCS(=O)(=O)C2)cc1 (configuration not stated),"7.94 µM [falling, partial curve, poor fit]",–
CC(=O)Nc1ccc2c(c1)nc1n2CCN(C2CCCCC2)C1,"3.55 µM [rising, partial curve, poor fit]",–
Cc1ccc(S(=O)(=O)N2CCOCC2)cc1NC(=O)COc1cccc(Oc2ccccc2)c1,"29.1 µM [falling, single point]",–
COc1ccc(NC(=O)c2ccccn2)cc1OC,"11.6 µM [falling, partial curve]",–
Fc1cc(Br)cc(F)c1NC(=S)N1CCOCC1,"14.1 µM [rising, single point]",–
CCOC(=O)c1c(SCC(=O)Nc2nc3ccccc3s2)nc(=O)[nH]c1C,"0.562 µM [falling, full curve]",–

# A stretch of the results above, for reference:
SMILES,AC50 [1],AC50 [2]
CC(=O)Nc1ccc2c(c1)nc1n2CCN(C2CCCCC2)C1,"3.55 µM [rising, partial curve, poor fit]",–
Cc1ccc(S(=O)(=O)N2CCOCC2)cc1NC(=O)COc1cccc(Oc2ccccc2)c1,"29.1 µM [falling, single point]",–
COc1ccc(NC(=O)c2ccccn2)cc1OC,"11.6 µM [falling, partial curve]",–
